Reference: PubChem BioAssay AID1347423 (Functional Genomics Laboratory (NCATS/FGL), 2020)
Among all 52,000 sequences or so, about 210 (0.4%) were called active.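 Rule for the calls: active = gene whose silencing raises cell survival under the drug, median off-target-corrected z-score across its silencing RNAs 2 or more; inactive = the rest.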 This is one part of the list.

Experiment: Resistance to Poly (ADP-Ribose) Polymerase inhibitor: Gene Identification via Genome-wide siRNA Screen
Conditions: mouse BRCA2 R2336H ES cells, olaparib, CellTiter-Glo viability; active compounds read high
Procedure, shortened: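 Mouse BRCA2 R2336H ES cells were reverse-transfected with siRNA (20 nM final), treated at 48 h with 500 nM olaparib, and read by CellTiter-Glo after 72 h. Scores: MAD-based z per siRNA, median per gene, seed off-target correction.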
For GGAUCUUCGGACCUAUCUGTT against Bin1, the z-score was inactive: -2.26. For GGAAGAAGGAACAUGAUCUTT against Mrpl52, the z-score was inactive: 0.64. In the case of GGGCUUUGAUGUCAUGAAGTT against Drg2, the z-score is reported as inactive: -0.543. In the case of GGAGAUCAUUAAAAAGCUGTT against Pcaf, the z-score is reported as inactive: 1.34. With CCAUCAAACUAAGACAAUCTT against Ckt2 the z-score was inactive: -0.306. For “CCCAUUUGCUCUGUGGAUCTT against 1300017K07Rik”, the z-score was inactive: -0.00892. With GGCAGGACAUUCUCAAAUCTT against DXImx39e the z-score was inactive: -0.171. With GGUAUCCACUGUGCCAACCTT against Ush2a the z-score was inactive: -0.547. For CGCAGAAGCUAAUAAACAGTT against Psmb6, the z-score was inactive: -1.52. For GGUCCUGGACUUCAUGCUATT against Galnt6, the z-score was inactive: -0.771. For GCCAAUACGGGUGAACAAGTT against Sf3b4, the z-score was inactive: -2.44. With GCCAGUUCUAGGGUAAUGGTT against Cnr2 the z-score was inactive: 2.84. In the case of GGAUGGCUUUAAUAGUACUTT against Zfp106, the z-score is reported as inactive: -0.301. In the case of CCAUGUUAGAACUGGGACUTT against AI851790, the z-score is reported as inactive: 0.0399. With GGCAUUCUUUCUUCAAUACTT against Ibsp the z-score was inactive: 0.325. For “GGGAAGAAAAAGAGCAUAUTT against 4930429A22Rik”, the z-score was inactive: -0.173. For GGCACUUGCUAUCAGCAAGTT against Cdc6, the z-score was inactive: -0.536. In the case of CCUUUACUGUCACAAGCCGTT against Rgl2, the z-score is reported as inactive: 1.22. With “CGAUCAAAAAAAUCGUGUGTT against 4933411K20Rik” the z-score was inactive: -0.688. In the case of “GGUAUACACAUGAAAACCATT against 3110023B02Rik”, the z-score is reported as inactive: 2.35. For GCUAAUCACUGAAUGCUUCTT against Sca10, the z-score was inactive: 1.24. In the case of “GGACAACAGAAGACCUGUUTT against D10Bwg0940e”, the z-score is reported as inactive: -1.97. With GGCUUCACUCUGAAGAAUUTT against Nab2 the z-score was inactive: -1.41. In the case of GGAGUCAGUCCUUAAGCCUTT against Trim30, the z-score is reported as inactive: -0.154. For GCACCUUUGAAUGUGAAGUTT against Ccl2, the z-score was inactive: -0.122. With CCCAUUAACCACUCCUAAATT against AI851790 the z-score was inactive: 1.63. With CCUGACAGUACCAAAAAAUTT against Pax4 the z-score was inactive: 1.2. In the case of “CCCGACUGAAUGCUCGGAUTT against 4931406I20Rik”, the z-score is reported as inactive: -0.572. In the case of CCUUGGUUGUAUCCAUUUUTT against Cnot10, the z-score is reported as inactive: -1.04. For GUACUAGUGGUGACUGCAUTT against Olfr462, the z-score was inactive: -1.48. For GGUAACAUCCUAUAAAUAGTT against Arl5, the z-score was inactive: 0.164. For GCACAAGCGUGGAACACAUTT against Dctn2, the z-score was inactive: -2.91. With GCAUUCUAUACUAUCGUCATT against Olfr314 the z-score was inactive: 1.5. In the case of “GGUUGGAACAAAAUCUUUATT against 3830408P04Rik”, the z-score is reported as inactive: 1.06. For GGAGCUACACACAUAGGAATT against Clrf, the z-score was inactive: 0.0183. In the case of GGUAAAAGUGGAACAAGAGTT against Irak3, the z-score is reported as inactive: 0.596. For “GGAUCAAAUCAAGAAGAUGTT against 2210412K09Rik”, the z-score was inactive: -0.814. For GCAAGUACCAUGGACCAUGTT against Mbp, the z-score was inactive: 1.46. For GGUGCAAUGCAAACUCUACTT against Cldn19, the z-score was inactive: -1.8. For GGCACCAUUCUGAAUCAGATT against Ddx50, the z-score was inactive: -0.952. For GCACAACAUAAGAAGGUGGTT against Klk14, the z-score was inactive: 2.45. With GGACACAACUCAUUUUCAGTT against Prg3 the z-score was inactive: 0.45. In the case of “CCUAGAGAGACAUAUUGUUTT against E130203B14Rik”, the z-score is reported as inactive: -0.888. With GGACUUCAAGGAUAGUGAGTT against Osm the z-score was inactive: 0.178. In the case of GGAUCUUCGUCAACAAGCATT against Zmynd10, the z-score is reported as inactive: 0.879. With CCAAGGACGGCCUUACACUTT against D2Wsu81e the z-score was inactive: -0.136. In the case of “GGAUUCUGCCUGAUCAAUGTT against 1110008F13Rik”, the z-score is reported as inactive: -1.08. For CGCGGAGUCACUACUAGAGTT against BC027373, the z-score was inactive: 0.228. In the case of CGAGAAUACAUUGAGGAGUTT against Hook2, the z-score is reported as inactive: -0.29. With GGUGGCAGAGUUGUUAUUUTT against Ppp2r2d the z-score was inactive: 2.2. With GCUCACCAUCAAAUCAGUGTT against Ceacam14 the z-score was inactive: -1.53. In the case of CCAGACCUAUACUAUGAAUTT against Ttc15, the z-score is reported as inactive: -0.225.
